Reference: US20260042795 (published 2026)

Test: general procedure: Fmoc solid-phase peptide synthesis; Oxyma/DIC
Details: whole synthesis; for isolated yield: on resin loading

**Q.** What does the source list for (KL)4(KKL)2KKL?
**A.** crude yield (run 1): 64.9%; crude yield (run 2): 53.9%; crude yield (run 3): 42.2%; crude yield (run 4): 46.4%

**Q.** Which isolated yield (run 1) does the source give for fPRPGGGGNGDFEEIPEEYL here?
**A.** 46.3%

**Q.** What about the isolated yield (run 2) of the same substance?
**A.** 38.7%
